Experimental data published in PMC11497051.
Results are given in words; binding and its absence hold for the method and conditions named. In cells and extracts the contact can be indirect. Some binding calls cover weakened binding; strength is not graded here. For part of these data: Tags and fused reporters may be left off the sequences shown. Each block holds one molecule with its values, some of them ahead of it.

Amino acid sequences for entries named in this document (tags omitted). A change or cut given only in a name is not applied to a line headed by its entry. Residues count along the entry.
UniProt P46937: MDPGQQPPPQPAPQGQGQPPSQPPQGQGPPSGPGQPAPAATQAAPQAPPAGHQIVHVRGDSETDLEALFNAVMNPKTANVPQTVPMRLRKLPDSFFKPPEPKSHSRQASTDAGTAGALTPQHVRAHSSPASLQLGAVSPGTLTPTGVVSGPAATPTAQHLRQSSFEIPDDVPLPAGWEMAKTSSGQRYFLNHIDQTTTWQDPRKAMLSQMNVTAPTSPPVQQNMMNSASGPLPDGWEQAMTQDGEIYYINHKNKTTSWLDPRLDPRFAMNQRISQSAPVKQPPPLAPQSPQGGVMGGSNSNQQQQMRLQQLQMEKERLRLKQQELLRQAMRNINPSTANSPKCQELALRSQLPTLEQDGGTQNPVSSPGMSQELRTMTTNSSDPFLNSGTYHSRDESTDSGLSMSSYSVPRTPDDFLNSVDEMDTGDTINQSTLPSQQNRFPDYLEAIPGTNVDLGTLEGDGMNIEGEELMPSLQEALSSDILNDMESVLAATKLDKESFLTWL
His-YAP (231-263aa): residues 231-263 of P46937

How the values were obtained:
[1] = target: T1, Neuraminidase 4 (NEU4) (human (endogenous in HK-2)) (UniProt Q8WWR8); test: co-IP; HK-2 cells treated with TGF-β, with or without HMF (HMF notably hindered the interaction); IP-lysis buffer, antibody or IgG overnight at 4 °C, Protein A/G magnetic beads, three washes with PBST, Western blot
T1 sequence: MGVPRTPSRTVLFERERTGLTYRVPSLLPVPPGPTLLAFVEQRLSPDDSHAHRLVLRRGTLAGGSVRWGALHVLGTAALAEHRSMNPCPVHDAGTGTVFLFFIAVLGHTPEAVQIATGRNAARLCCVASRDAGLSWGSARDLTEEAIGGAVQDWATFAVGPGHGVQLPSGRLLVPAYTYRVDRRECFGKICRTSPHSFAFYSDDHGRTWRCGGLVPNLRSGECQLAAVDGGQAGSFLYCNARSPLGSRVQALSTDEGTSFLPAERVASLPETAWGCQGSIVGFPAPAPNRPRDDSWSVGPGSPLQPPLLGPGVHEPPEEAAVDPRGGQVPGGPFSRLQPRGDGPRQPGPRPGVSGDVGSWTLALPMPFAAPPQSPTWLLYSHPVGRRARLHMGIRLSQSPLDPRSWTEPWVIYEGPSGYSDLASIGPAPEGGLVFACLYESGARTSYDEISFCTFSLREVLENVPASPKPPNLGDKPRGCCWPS

[2] = target: T2, pBiFC-NEU4(human)(254-388aa)-CC155 (human) (UniProt Q8WWR8); test: split reporter; BiFC in 293T cells co-transfected with the CC155 and CrN173 fusions; controls with one plasmid alone; high content imaging
T2 sequence: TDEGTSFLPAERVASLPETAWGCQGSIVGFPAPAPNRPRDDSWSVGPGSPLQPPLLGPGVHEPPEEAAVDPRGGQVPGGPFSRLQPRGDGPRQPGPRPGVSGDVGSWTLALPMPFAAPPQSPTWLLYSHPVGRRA

[3] = target: His-YAP (231-263aa) (human) (UniProt P46937); test: co-IP; HEK293T cells co-transfected with the tagged constructs; cell lysates IP with His antibody (Figure 5E,F); the precipitating antibody of Figure 5G is not told

binding [1]: binds
Molecule: Yes-associated protein (YAP) (from UniProt P46937 1-504)

binding [2]: binds
Molecule: pBiFC-YAP1(human)(231-263aa)-CrN173 (from UniProt P46937 231-263) (domain or fragment)

binding [3]: binds
B1: HA-tagged NEU4 (protein, UniProt Q8WWR8 1-484)
chain: T1 sequence
